Data taken from ChEMBL document CHEMBL3988442, “University of Dundee, Small-Polar-MMV Screening Library” (2021).

Each number is a percent effect as filed.
How 0% and 100% were set is not recorded. Most values in the screen are low, and negative values occur.
The compounds are a random part of those screened.
Two or more numbers in one place are separate tests of the same structure; such repeats can differ widely.

A: 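Whole-cell growth test on Mycobacterium tuberculosis, read after 3 days in glucose-containing 7H9 medium; the read-out is not stated. Concentration: 50 µM. Direction is inferred from retests: higher values go with more growth inhibition. Of about 69,000 compounds tested this way, about 760 (1.1%) reached 50% or more in at least one test.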
B: 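Phenotypic screen: M. tuberculosis growth, cholesterol and DPPC medium, 4 days; the read-out is not stated. Tested at 50 µM. Direction is inferred from retests: higher values go with more growth inhibition. About 69,000 compounds were tested under these conditions; 0.54% (about 370) showed 50% or more at least once.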

SMILES,A,B
CC(C)[C@@H]1CN(Cc2ccccc2C#N)C[C@H]1C(=O)O,21.96,-3.511
COc1cc(C)cc(OC)c1C(C(=O)O)N(C)Cc1c(C)nn(C)c1C (stereo not drawn),4.186,-5.846 & -12.38
OCCNc1nccc(-c2c[nH]nc2-c2ccco2)n1,3.284,-15.8
CCOc1cc(C(=O)N2CCCC(c3noc(CC)n3)C2)ccn1 (stereo not drawn),-17.96,-11.87
Cc1nc(CN2CCCC(c3nc(C)n4c(C)c(C)sc34)C2)co1 (stereo not drawn),-38.71,-25.61
O=C(O)C(F)(F)F.[H][C@@]12CCCO[C@]1([H])[C@H](N(C)C)CN2C(=O)CCc1ccccc1,-7.616,2.643
Cn1nc(CN2CCCC2)c2c1CN(C(=O)c1cnccn1)CC2,25.13 & 2.914,-5.7
COCCn1cncc1Cn1ncc2ccccc2c1=O,5.315 & -3.454,-19.9
C=C(C)COc1ccccc1CN1CCC(C(=O)NCC)C1 (stereo not drawn),1.455 & -9.719,7.348
CC(C)(C)c1nc(CN2CCCC(Cn3cncn3)C2)no1 (stereo not drawn),3.664,20.54
[H][C@]12CC[C@]([H])(CN(Cc3cccc(OCc4ccccn4)c3)C1)N(C)C2=O,-18.92,-13.05
CN(C)CCN1CCN(Cc2nccs2)Cc2cccnc21.O=C(O)C(F)(F)F.O=C(O)C(F)(F)F.O=C(O)C(F)(F)F,-17.68,-13.08
O=C1CCSCC(C(=O)NCc2nc(-c3ccccc3)no2)N1 (stereo not drawn),-11.23,4.116
COc1c(C)cnc(CN2CCC(N(C)S(C)(=O)=O)CC2)c1C,3.764,-5.284
COCCOc1ccc(NC(=O)C2CCC2)cn1,-8.642,-14.76
Cc1nn(C)cc1C(=O)NCc1cc(N(C)C)nc2ccccc12,14.84,5.2
CC(=O)N[C@@H]1CN(Cc2ccco2)C[C@H]1c1ccc(C)o1,4.417,-12.21 & -12.33
COc1ccccc1C(O)CNCc1c(C(C)C)nn(C)c1N(C)C (stereo not drawn),-7.541,-20.03
CCc1cc(NCCCNS(C)(=O)=O)nc(-c2ccncc2)n1,16.35,-5.57
CC(C)c1ncc2c(n1)CN(CCCc1nc3ccccc3o1)CC2,27.43,14.5
Fc1ccc(-c2cnc(CN3CCn4c(nnc4C4CC4)C3)o2)cc1,14.35,3.836
CCC(C)N(Cc1ccncc1)Cc1ccc(-n2cccn2)cc1 (stereo not drawn),-0.4165,-1.735
CC1c2ncc(COc3cccnc3)n2CCN1C(=O)C1=CCCCC1.O=C(O)C(F)(F)F (stereo not drawn),-14.76,-17.58
O=C(CN1CCc2c(ncn2C2CC2)C1)NC1CCN(C2CC2)CC1,-17.52,-18.87
N#Cc1cccc(C(=O)N2CCCC(C(=O)CCc3ccccc3)C2)c1 (stereo not drawn),0.3201,3.727
COc1ccccc1OCC(=O)NCC(O)(c1cccs1)C1CC1 (stereo not drawn),31.57,-6.025
O=C(O)C(F)(F)F.O=C(O)C(F)(F)F.[H][C@]12C[C@H](C(=O)NCC3CC3)N(C)[C@@]1([H])CN(Cc1ccsc1)C2,-32.61,-5.62 & -10.46
CC(C)c1ccc(CS(=O)(=O)Cc2nc(N)nc(N(C)C)n2)cc1,-15.7,1.824
O=C(Nc1nc(-c2ccccc2)ns1)N1CC[C@H](O)C1,3.128,-7.183
CN(C)C(=O)CSc1nnc(CCNC(=O)OC(C)(C)C)o1,-29.49,-29.99
CCCc1cnc(C)nc1N1CCC(F)(F)CC1,-26.54,-16.56 & -5.728
COc1ccc(-n2ncc(C(=O)NCC3COC(C)(C)O3)c2N)cc1 (stereo not drawn),-15.47,-19.21
Cc1cnn(C2CN(Cc3nc4cc(Cl)ccc4n3C)C2)c1,23.06,13.02
O=CO.c1nc(CN2CCCC(Cc3ccc(NC4CCCC4)nn3)C2)c[nH]1 (stereo not drawn),2.316,1.475
Cc1cnn(CC2CCCN2C(=O)CCc2ccc3c(c2)OCO3)c1 (stereo not drawn),27.39,-4.666
CCC(C)(NCC(=O)Nc1nc(C)cs1)c1nc(C)cs1 (stereo not drawn),-13.42,-23.34
Cc1c(Cl)c(C(=O)N2C[C@@H](C(=O)O)[C@H](c3cccnc3)C2)nn1C,-30.06,-6.87
CN(Cc1noc2c1CCCC2)C(=O)CN1C(=O)COc2ccccc21,-7.438,-10.65
CN(C)C(=O)CCNC(=O)Nc1cccc(Cl)c1-n1cccn1,-13.85,-4.5
Cc1nc(CN2C[C@@H](NS(=O)(=O)N(C)C)[C@H](C(C)C)C2)cs1,7.547,1.71 & -46
NCc1cnn(-c2ccccc2C(=O)NCCc2ccncc2)c1,-15.44,-6.905
COc1ccc(OC)c(CNCCc2cc(F)cc3c2OCOC3)c1,36.63 & 16.65,12.01
COc1ccc(C)cc1C(=O)NC(CC(=O)O)c1cccs1 (stereo not drawn),6.396,-3.988
Nc1ccnc(N2CCCC(CO)(Cc3cccc(Cl)c3)C2)n1 (stereo not drawn),21.12,-23.16
CC(=O)N1CCC2(C1)C(=O)N(CC1CC1)c1ccccc12 (stereo not drawn),15.72,17.45
OCCNc1nc(Nc2ccccc2)c2nccnc2n1,7.812 & -15.74,-45.92
CCOC(=O)N1CCC(NC(C)c2ccccc2-n2cccn2)CC1 (stereo not drawn),-2.738,-15.23
O=C(COc1coc(CN2CCCCC2)cc1=O)NCc1ccccc1,-13.77 & -10.08,-1.173
COCCN1CCn2c(nc3cc(C(=O)NC(C)C)ccc32)C1,8.349,-7.874
COc1ccccc1C1(CNc2nnc(C)c(C)c2C#N)CCCC1,7.512 & 38.37,13.93

5 of the entries, repeated:

With O=C(CN1CCc2c(ncn2C2CC2)C1)NC1CCN(C2CC2)CC1 the screen gave A: -17.52%; B: -18.87%.
With Cc1c(Cl)c(C(=O)N2C[C@@H](C(=O)O)[C@H](c3cccnc3)C2)nn1C the screen gave A: -30.06%; B: -6.87%.
With CCCc1cnc(C)nc1N1CCC(F)(F)CC1 the screen gave A: -26.54%; B: -16.56% & -5.728%.
With COc1ccc(C)cc1C(=O)NC(CC(=O)O)c1cccs1 (stereo not drawn) the screen gave A: 6.396%; B: -3.988%.
With NCc1cnn(-c2ccccc2C(=O)NCCc2ccncc2)c1 the screen gave A: -15.44%; B: -6.905%.